In the supplement of paper PMC12067093, “Discovery and optimisation of a covalent ligand for TRIM25 and its application to targeted protein ubiquitination” (Chemical Science, 2025):
This is one part of the list.

Compound: Cc1cc(ccc1-c1ccccc1)C(=O)N1CCCN(CC1)C(=O)CCl [compound 10]
Assay: probe-labelled cysteine peptide fold change vs DMSO (competition) (log2 fold change); higher = less target engagement (more negative = stronger competition)
Conditions: THP-1, incubation time: 4 h
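Further: competitive profiling in live THP-1 cells: cysteine peptides tagged with an iodoacetamide desthiobiotin (IA-DTB) probe, intensity after compound treatment relative to DMSO-treated cells.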

Row | Target | probe-labelled cysteine peptide fold change (10 µM) | probe-labelled cysteine peptide fold change (50 µM)
1 | COMMD4_Q9H0A8_107_EHAASLCR (UniProt Q9H0A8) | 0.117 | -0.373
2 | CNNM4_Q6P4Q7_383_TVEDIMTQLQDCFMIR (UniProt Q6P4Q7) | 0.18 | -0.0113
3 | COPG1_Q9Y678_706_SLPYNQPGTCYTLVALPK (UniProt Q9Y678) | 0.143 | -0.105
4 | COMMD9_Q9P000_47_LLDVTCSSLSVTQEEAEELLQALHR (UniProt Q9P000) | 0.208 | 0.364
5 | CNOT9_Q92600_99_VCNALALLQCVASHPETR (UniProt Q92600) | 0.0897 | -0.333
6 | COG4_Q9H9E3_240_FSEYLCK (UniProt Q9H9E3) | 0.0437 | 0.169
7 | COPG2_Q9UBF2_420_AIVDCIISIVEENPESK (UniProt Q9UBF2) | 0.346 | 0.317
8 | COPG1_Q9Y678_440+446_ETGLSHLCEFIEDCEFTVLATR (UniProt Q9Y678) | 0.135 | 0.0846
9 | CNBP_P62633_97+98+101_EQCCYNCGKPGHLAR (UniProt P62633) | -0.244 | -0.799
10 | CNP_P09543_49_DKPELQFPFLQDEDTVATLLECK (UniProt P09543) | 0.0225 | 0.0901
11 | CMPK2_Q5EBM0_422_MENPGCHVVDASPSR (UniProt Q5EBM0) | -0.101 | 0.0513
12 | CNOT2_Q9NZN8_175_SSPSIICMPK (UniProt Q9NZN8) | -0.236 | -0.343
13 | COPG1_Q9Y678_726_EDPTAVACTFSCMMK (UniProt Q9Y678) | 0.167 | 0.11
14 | COMT_P21964_83_ILNHVLQHAEPGNAQSVLEAIDTYCEQK (UniProt P21964) | -0.119 | 0.0476

As a short view, some entries already given.
Row | Target | probe-labelled cysteine peptide fold change (10 µM) | probe-labelled cysteine peptide fold change (50 µM)
5 | CNOT9_Q92600_99_VCNALALLQCVASHPETR (UniProt Q92600) | 0.0897 | -0.333
6 | COG4_Q9H9E3_240_FSEYLCK (UniProt Q9H9E3) | 0.0437 | 0.169
7 | COPG2_Q9UBF2_420_AIVDCIISIVEENPESK (UniProt Q9UBF2) | 0.346 | 0.317
8 | COPG1_Q9Y678_440+446_ETGLSHLCEFIEDCEFTVLATR (UniProt Q9Y678) | 0.135 | 0.0846
